The record followed here is patent publication US20050089858A1.

Results are given in words; binding and its absence hold for the method and conditions named. Binding seen in cells or lysates may run through a third protein. Some entries that bind do so weakly or less than the wild type. Sequences can lack the tags named with a protein.

For the assay, the target named is Salvador WW domain-GST construct (Drosophila Salvador residues 419-495 fused to GST) (Drosophila) [GST: P08515]. Briefly: GST pull-down: GST-Salvador(419-495) on glutathione-sepharose with 293T lysate expressing Myc-Warts, anti-Myc 9E10 immunoblot. In general terms: Immunoblotting shows a protein as a band on a membrane.

B1: Myc-tagged Drosophila Warts protein (enzyme, not shown: small tags and cut ends)
chain: MHPAGEKRGGRPNDKYTAEALESIKQDLTRFEVQNNHRNNQNYTPLRYTATNGRNDALTPDYHHAKQPMEPPPSASPAPDVVIPPPPAIVGQPGAGSISVSGVGVGVVGVANGRVPKMMTALMPNKLIRKPSIERDTASSHYLRCSPALDSGAGSSRSDSPHSHHTHQPSSRTVGNPGGNGGFSPSPSGFSEVAPPAPPPRNPTASSAATPPPPVPPTSQAYVKRRSPALNNRPPAIAPPTQRGNSPVITQNGLKNPQQQLTQQLKSLNLYPGGGSGAVVEPPPPYLIQGGAGGAAPPPPPPSYTASMQSRQSPTQSQQSDYRKSPSSGIYSATSAGSPSPITVSLPPAPLAKPQPRVYQARSQQPIIMQSVKSTQVQKPVLQTAVAPQSPSSASASNSPVHVLAAPPSYPQKSAAVVQQQQQAAAAAHQQQHQHQQSKPATPTTPPLVGLNSKPNCLEPPSYAKSMQAKAATVVQQQQQQQQQQQVQQQQVQQQQQQQQQQLQALRVLQAQAQRERDQRERERDQQKLANGNPGRQMLPPPPYQSNNNNNSEIKPPSCNNNNIQISNSNLATTPPIPPAKYNNNSSNTGANSSGGSNGSTGTTASSSTSCKKIKHASPIPERKKISKEKEEERKEFRIRQYSPQAFKFFMEQHIENVIKSYRQRTYRKNQLEKEMHKVGLPDQTQIEMRKMLNQKESNYIRLKRAKMDKSMFVKLKPIGVGAFGEVTLVSKIDTSNHLYAMKTLRKADVLKRNQVAHVKAERDILAEADNNWVVKLYYSFQDKDNLYFVMDYIPGGDLMSLLIKLGIFEEELARFYIAEVTCAVDSVHKMGFIHRDIKPDNILIDRDGHIKLTDFGLCTGFRWTHNSKYYQENGNHSRQDSMEPWEEYSENGPKPTVLERRRMRDHQRVLAHSLVGTPNYIAPEVLERSGYTQLCDYWSVGVILYEMLVGQPPFLANSPLETQQKVINWEKTLHIPPQAELSREATDLIRRLCASADKRLGKSVDEVKSHDFFKGIDFADMRKQKAPYIPEIKHPTDTSNFDPVDPEKLRSNDSTMSSGDDVDQNDRTFHGFFEFTFRRFFDDKQPPDMTDDQAPVYV
On to B1, for which the binding result is on record as “binds”.
